These are yes or no findings as the source states them, for the method shown. Some binding calls cover weakened binding; strength is not graded here. Tags and fused reporters may be left off the sequences shown. One block for each substance: values may come before it.
What was measured:
hSu(fu) C-Myc (human) [1] = biological target: T1, hSu(fu) C-Myc (human) (UniProt Q9UMX1); assay: 293 cells, anti-Flag IP, immunoblot
T1 sequence (looked up): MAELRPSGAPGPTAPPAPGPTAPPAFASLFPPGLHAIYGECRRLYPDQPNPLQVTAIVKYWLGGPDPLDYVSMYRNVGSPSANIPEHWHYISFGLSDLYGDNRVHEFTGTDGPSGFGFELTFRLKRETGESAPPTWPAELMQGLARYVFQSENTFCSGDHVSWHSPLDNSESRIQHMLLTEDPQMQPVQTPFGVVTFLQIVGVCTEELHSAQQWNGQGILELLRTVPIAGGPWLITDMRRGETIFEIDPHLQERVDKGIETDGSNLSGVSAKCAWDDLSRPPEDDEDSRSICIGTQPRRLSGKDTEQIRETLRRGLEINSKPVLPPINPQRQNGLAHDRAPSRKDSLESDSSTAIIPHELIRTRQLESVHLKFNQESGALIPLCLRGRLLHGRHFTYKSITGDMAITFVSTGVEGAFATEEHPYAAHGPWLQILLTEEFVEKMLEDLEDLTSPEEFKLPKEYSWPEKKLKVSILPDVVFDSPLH

Amino acid sequences for entries named in this document (tags omitted). A change or cut given only in a name is not applied to a line headed by its entry.
UniProt Q9NRP7: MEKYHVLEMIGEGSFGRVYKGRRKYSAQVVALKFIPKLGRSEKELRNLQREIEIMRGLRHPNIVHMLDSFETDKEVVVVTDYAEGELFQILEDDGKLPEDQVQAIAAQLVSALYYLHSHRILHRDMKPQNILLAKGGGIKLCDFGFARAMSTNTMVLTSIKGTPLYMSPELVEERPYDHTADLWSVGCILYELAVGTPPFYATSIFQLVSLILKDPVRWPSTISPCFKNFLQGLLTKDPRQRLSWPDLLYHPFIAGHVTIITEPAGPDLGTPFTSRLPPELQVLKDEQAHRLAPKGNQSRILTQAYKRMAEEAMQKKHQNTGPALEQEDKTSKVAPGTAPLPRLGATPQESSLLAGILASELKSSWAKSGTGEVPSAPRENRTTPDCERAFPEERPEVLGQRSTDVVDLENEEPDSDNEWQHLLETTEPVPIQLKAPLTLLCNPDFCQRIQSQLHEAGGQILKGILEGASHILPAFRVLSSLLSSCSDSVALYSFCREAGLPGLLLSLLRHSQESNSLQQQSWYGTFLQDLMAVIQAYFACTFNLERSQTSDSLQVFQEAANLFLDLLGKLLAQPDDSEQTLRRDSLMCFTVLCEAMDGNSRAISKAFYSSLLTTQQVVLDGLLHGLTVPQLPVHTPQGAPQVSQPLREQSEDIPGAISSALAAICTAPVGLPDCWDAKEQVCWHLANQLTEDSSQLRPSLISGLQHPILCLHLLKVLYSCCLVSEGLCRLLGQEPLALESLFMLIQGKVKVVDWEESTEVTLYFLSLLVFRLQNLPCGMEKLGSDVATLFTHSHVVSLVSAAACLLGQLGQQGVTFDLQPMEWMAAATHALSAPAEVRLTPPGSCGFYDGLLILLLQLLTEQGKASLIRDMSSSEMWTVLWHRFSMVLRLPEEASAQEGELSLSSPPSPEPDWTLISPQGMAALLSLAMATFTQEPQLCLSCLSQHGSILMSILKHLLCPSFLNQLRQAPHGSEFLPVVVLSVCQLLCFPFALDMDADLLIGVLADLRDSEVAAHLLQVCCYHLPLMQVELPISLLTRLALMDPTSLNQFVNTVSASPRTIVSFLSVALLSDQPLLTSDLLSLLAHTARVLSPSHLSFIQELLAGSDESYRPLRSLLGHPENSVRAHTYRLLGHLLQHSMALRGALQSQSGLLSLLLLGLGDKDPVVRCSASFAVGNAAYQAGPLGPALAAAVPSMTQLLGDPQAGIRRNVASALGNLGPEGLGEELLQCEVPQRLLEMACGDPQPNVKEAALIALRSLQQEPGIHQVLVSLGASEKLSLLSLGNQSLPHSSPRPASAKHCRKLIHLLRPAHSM

hSu(fu) C-Myc (human) [2] = biological target: T1, hSu(fu) C-Myc (human); assay: co-transfection in 293 cells, anti-Flag IP, immunoblot
hSu(fu) C-Flag (human) [3] = biological target: T2, hSu(fu) C-Flag (human) (UniProt Q9UMX1); assay: 293 cells, anti-Flag IP, immunoblot
T2 sequence (looked up): T1 sequence (looked up)

hSu(fu) C-Flag (human) [4] = biological target: T2, hSu(fu) C-Flag (human); assay: co-transfection in 293 cells, anti-Flag IP, immunoblot
hSu(fu) C-Myc (human) [5] = biological target: T1, hSu(fu) C-Myc (human); assay: anti-Myc IP of hSu(fu) C-Myc from co-transfected 293 cells, immunoblot (FIG. 15B)

- binding (hSu(fu) C-Myc (human) [1]): binds
- binding (hSu(fu) C-Myc (human) [2]): binds
Substance: hfused C-Flag (from UniProt Q9NRP7 1-1315) (enzyme)

- binding (hSu(fu) C-Flag (human) [3]): binds
- binding (hSu(fu) C-Flag (human) [4]): binds
Substance: human fused (from UniProt Q9NRP7 1-1315) (enzyme)

- binding (hSu(fu) C-Myc (human) [5]): binds
Substance: hFu ΔC (from UniProt Q9NRP7 1-823) (enzyme)
